In US7674768 (dated 2010):
Non-standard residues stand in square brackets, D forms with d. *: point of attachment. Fmoc = O=C(OCC1c2ccccc2-c2ccccc21)*; hArg = N=C(N)NCCCC[C@H](N)C(=O)O; OtBu = CC(C)(C)O*

Assay: general procedure: solution-phase peptide synthesis
Details: for step yield: coupling step

Substance | crude HPLC purity (late stage modification step, 220 nm) | step yield (net yield, based on nitrogen content 96.0%) | step yield (recovery yield)
[MPA-Har-Gly-Asp-Trp-Pro-Cys](NH2) | 45.8% | – | –
Fmoc-[hArg]GD(OtBu)WP-OH | – | 82.3% | 81.8%
